{"source": "patent US8362031B2", "about": "“Lonidamine analogues and treatment of polycystic kidney disease” (University of Kansas, priority 2004, dated 2013)", "system": "Male Long Evans rats", "assay": "In vivo antispermatogenic testing in Long Evans rats", "conditions": "25 mg/kg single i.p. injection; animals responding out of animals surviving; five days following injection", "note": "Where “and” joins values, the source holds several entries; their conditions need not be identical. Identical values can stand only once. The name of at least one read-out is uncertain.", "data": [{"smiles": "O=C(O)/C=C/c1nn(Cc2ccc(Cl)cc2Cl)c2cc(Cl)ccc12", "note": "[JWS-1-190, 3-[1-(2,4-dichlorobenzyl)-6-chloro-1H-indazol-3-yl]-acrylic acid]", "values": [{"measurement": "Response 25 mg/kg", "value": "5/5 and 4/5"}]}]}
